# Measurements: US7494976B2, “Caveolin peptides and their use as therapeutics” (Yale University, priority 2000, dated 2009)
# Entries after “also recorded” stand apart in the source; their conditions may differ. At least one peptide structure holds a part that was inferred or is arguable (an end, a ring closure or a residue). Ends that are not written are not given here.
# Tests used:
# isolated mouse aorta [1] = test: Ach-induced relaxation of isolated mouse aortic rings (organ bath)
# Protocol: (§1) For isolated mouse aortic rings preparations, male C57 black mice (5-7 weeks of age) were anesthetized with methoxyflurane and sacrificed by exsanguination. The thoracic aorta was dissected and cut into cylindrical segments of three millimeters in length. Using a sterile 48-well tissue culture plate, each ring was incubated in a total volume of one ml with either peptides or vehicle (DMSO) diluted in DMEM supplemented with penicillin (100 units/ml), streptomycin (100 μg/ml) and L-glutamine (1 mM). The plate was incubated with 5% CO2. Following incubation with the peptides (one, six, twelve or twenty hours), rings were washed in oxygenated (95% O2-5% CO2) Krebs-Henseleit bicarbonate buffer solution (KHS) of the following composition (NaCl—118.3 mmol/L, KCl—4.7 mmol/L, CaCl2—2.5 mmol/L, MgSO4—1.2 mmol/L, KH2PO4—1.2 mmol/L, NaHCO3—25 mmol/L, glucose—5.6 mmol/L at 37° C. with ibuprofen (10 μM). The rings were suspended by two tungsten wires ([…] thickness) inserted into the lumen and mounted in a vessel myograph system (five ml chamber, Kent Scientific). The mouse aortas were submitted to a resting tension of 1.5 grams and isometric tension was recorded using a force transducer coupled to a MacLab data acquisition system. Following a sixty minute equilibration period, with frequent washes, the rings were precontracted with phenylephrine (PE) (10 μM; sub maximal concentration) and concentrations of Ach (1 nM-10 μM), sodium nitroprusside (10 μM) or Nitro-L-Arginine Methyl Ester (L-NAME, 100 mM) were injected at the plateau of the PE contraction. In some experiments concentration-response curves to the contractile effects of PE were monitored.
# [2] = tested on: bovine aortic endothelial cells (BAEC); test: Ionomycin stimulated NO release from cultured endothelial cells (chemiluminescence); format: cell-based; conditions: 1 μM peptide six hours; ionomycin 1 μM thirty minutes
# Protocol: For measurement of nitric oxide release from cultured endothelial cells, bovine aortic endothelial cells (BAEC) were cultured in high glucose Dulbecco's modified Eagle's medium (DMEM) containing 10% (v/v) fetal bovine serum, penicillin, streptomycin and L-glutamine. For measurement of ionomycin stimulated NO release, confluent BAEC were cultured in […]. Cells were washed and media was changed to serum free DMEM containing peptides or vehicle (0.01% DMSO). Following a six hour incubation, peptides were washed out and cells were stimulated with ionomycin (1 μM) for thirty minutes. Media was collected and processed for the measurement of nitrite (NO2—), the stable breakdown product of NO in aqueous solution, by NO-specific chemiluminescence. Samples containing NO2— were refluxed in glacial acetic acid containing sodium iodide. […] In all experiments, NO2— release was inhibitable by a NOS inhibitor.
# mouse aortic rings = test: L-NAME induced contraction of peptide-pretreated mouse aortic rings; conditions: vessels pretreated with 10 μM peptide; L-NAME 100 μM
# Protocol: as §1, with “Following a sixty minute equilibration period, with frequent washes, the rings were precontracted with phenylephrine (PE) (10 μM; sub maximal concentration) and concentrations of Ach (1 nM-10 μM), sodium nitroprusside (10 μM) or Nitro-L-Arginine Methyl Ester (L-NAME, 100 mM) were injected at the plateau of the PE contraction.” left out, “monitored. […]” for “monitored.”
# [3] = tested on: carrageenan induced paw edema; test: Murine carrageenan induced paw edema model; format: in vivo, mouse
# Protocol: For in vivo inflammation studies the murine carrageenan induced paw edema model was used. Briefly, male, Swiss mice (25-30 grams) were divided in groups (n=6-7) and lightly anaesthetised with methoxyflurane. Each group of animals received a subplantar administration of 50 μl of 1% (w/v) λ carrageenan. Paw volume was measured using a hydroplethismometer modified for measuring small volumes (Ugo Basile) immediately before the carrageenan injection and twenty-four and forty-eight hours thereafter. The increase in paw volume is evaluated as the difference between paw volume at each time point and the basal volume. AP-Cav (0.3, 1 mg/kg i.p.) AP-Cav-X (1 mg/kg i.p.) and dexamethasone (0.1 mg/kg s.c.) were administered at the time of carrageenin administration (time zero) and at twenty-four and forty-eight hours. In a separate series of experiments, forty-eight hours post carrageenan injections, animals were sacrificed by cervical dislocation and both paws were cut. The right paws were embedded in OCT medium and cross sections ([…] of thickness) were obtained for staining with hematoxylin and eosin.
# tumor growth in vitro = test: Tumor growth in vitro (preliminary data); format: cell-based
# isolated mouse aorta [4] = test: Phenylephrine-induced contraction of isolated mouse aorta; conditions: 10 μM peptide preincubation
# Protocol: as §1, with “Following a sixty minute equilibration period, with frequent washes, the rings were precontracted with phenylephrine (PE) (10 μM; sub maximal concentration) and concentrations of Ach (1 nM-10 μM), sodium nitroprusside (10 μM) or Nitro-L-Arginine Methyl Ester (L-NAME, 100 mM) were injected at the plateau of the PE contraction.” left out
# isolated mouse aortas = test: Sodium nitroprusside induced (endothelium independent) relaxation of mouse aorta; conditions: 10 μM peptide, twenty hours; SNP 10 μM
# eNOS = test: Ionophore induced NO2- release in eNOS transfected COS-7 cells; format: cell-based; conditions: peptide six hours
# prostacyclin production = test: Prostacyclin release from mouse aortic rings (6-keto-PGF1α by EIA); conditions: peptide twenty hours; Ach 1 μM thirty minutes
# Protocol: To further test the specificity of AP-Cav, Ach-induced prostacyclin production was measured. For measurement of prostacyclin release, after twenty hour incubation period, aortic segments (4-5 mm) were placed in sterile 48-well tissue culture plates with 300 μl of KHS at 37° C. for thirty minutes in an incubator. Then aliquots of […] were taken in order to measure the basal release of prostacyclin. Ach (1 μM) was added and the plate was kept in the incubator for an additional thirty minutes. Aliquots were then taken in order to measure the Ach-stimulated release of prostacyclin. This protocol was performed in absence or in presence of ibuprofen (10 μM). The aliquots were frozen and prostacyclin release was measured as the stable breakdown product, 6-keto-PGF1α, by EIA (Amersham).
# vascular leakage = test: Mustard oil induced Evans blue extravasation in the mouse ear (vascular permeability); format: in vivo; conditions: 2 mg/kg i.p., forty-five minute pretreatment; read after thirty minutes
# Protocol: FIG. 10—AP-caveolin peptide reduces vascular leakage. Mice were pretreated with AP-Cav, AP-Cav-X (2 mg/kg of each, i.p.) or L-NAME (30 mg/kg, i.p.) for forty-five minutes followed by Evans blue administration (30 mg/kg, i.v.). Mustard oil was applied to the ventral and dorsal side of the right ear one minute after Evans blue injection. The extent of Evans blue extravasation was assessed after thirty minutes (n=4 mice per group for vehicle and L-NAME treated mice and n=5 for AP-Cav and AP-Cav-X treated mice; *p<0.05). (D) Representative pictures of mice subjected to mustard oil induced inflammation.
# To directly assess if the AP-peptide can influence vascular leakage in an additional model, we treated mice with vehicle, AP-Cav, AP-Cav-X (2 mg/kg, i.p. for each; forty-five minute pretreatment) or L-NAME (30 mg/kg, i.p., […] pretreatment) and examined the ability of mustard oil to induce the extravasation of Evans blue, as an index of vascular permeability. […] Thus, in two distinct models, AP-Cav reduces inflammation likely through attenuating eNOS-dependent blood flow and/or permeability changes evoke by inflammatory stimuli.
# HepG-2 tumors = test: HepG-2 tumor growth in nude mice; format: in vivo, mouse
# Protocol: The ability of the AP-Cav peptide to influence tumor growth in vivo was also examined. Nude mice were injected with the HepG-2 cells, a human hepatocarcinoma line, and the effects of AP-Cav and AP-Cav-X examined after daily administration of the peptides intraperitoneal. For HepG-2 cells implants in nude mice, the human hepatocarcinoma cell line, HepG-2, was cultured in minimal essential media with 10% fetal bovine serum, 2 mM L-glutamine, penicillin and streptomycin. Cells were grown on 150 mm dishes up to 80% confluence, trypsinized and ressuspended in serum free media. Viable cells were counted using the trypan blue exclusion method. A cell suspension was prepared at a density of 5×10^7 cells/ml. Nude mice were then injected in the flank with 100 μl of the HepG-2 cell suspension.
# When the tumors reached a solid palpable mass (7-10 days), treatment with the different drugs began. Peptides were dissolved in 0.01% (v/v) DMSO and administered daily by i.p. injection (100 μl/20 gram mouse) for fourteen days. Tumor volume was determined every day using the formula width^2×length×0.52. For histochemistry tumors were excised from the animal at day fourteen, washed in phosphate buffered saline and fixed in 70% ethanol. Tumor tissue was then paraffin imbedded and cross-sections (5 μM) were hematoxylin and eosin stained. Images were captured using a Zeiss microscope coupled to a CCD camera and were recorded with the NIH Image program.
sequence,measurement,setting,value
RQIKIWFQNRRMKWKKDGIWKASFTTFTVTKYWFYR [AP-Cav],effect on Ach-induced relaxation,"isolated mouse aorta [1]; 10 μM peptide, twenty hours incubation, PE precontracted rings","attenuated the ability of acetylcholine (Ach), an endothelium-dependent vasodilator, to elicit relaxation; also recorded: inhibited Ach-induced relaxation of the vessel"
same,dose and time dependence of the inhibitory effect on Ach-induced relaxations,"isolated mouse aorta [1]; 1-10 μM, one, six, twelve and twenty hours",dose-dependent (1-10 μM) and time-dependent
same,calcium ionophore stimulated NOx release,[2],blocked
same,further increase in isometric tension by L-NAME,mouse aortic rings,diminished the ability of L-NAME to further increase vascular tension; also recorded: attenuates L-NAME induced contractions
same,cellular infiltration into the sites of inflammation (histology),"[3]; 1 mg/kg, paws 48 hours post-injection, H&E",did not show marked differences
same,carrageenan induced edema formation (paw volume),"[3]; 0.3 and 1.0 mg/kg i.p. at zero, twenty-four, forty-eight hours, read at 24 and 48 h",dose-dependently suppressed
same,anti-inflammatory efficacy compared with dexamethasone,[3]; AP-Cav i.p. versus Dex 0.1 mg/kg s.c.,"comparable to that of the potent anti-inflammatory steroid, dexamethasone"
same,direct effect on tumor growth in vitro,tumor growth in vitro,does directly block tumor growth in vitro
same,potentiation of the vasoconstrictor actions of phenylephrine,isolated mouse aorta [4],resulted in potentiation
same,effect on vasorelaxant properties of sodium nitroprusside,isolated mouse aortas,had no effect
same,"calcium ionophore stimulated NO2- release, eNOS transfected cells",eNOS,blocked
same,basal or Ach stimulated prostacyclin production (6-keto-PGF1α),prostacyclin production,Neither AP-Cav-X nor AP-Cav influenced; also recorded: do not affect Ach-induced prostacyclin release
same,vascular leak (Evans blue extravasation),vascular leakage,significantly attenuated vascular leak and overall interstitial edema; also recorded: reduced the amount of Evans blue in the ear skin and surrounding tissue compared to AP-Cav-X
same,growth of HepG-2 tumors (tumor volume),HepG-2 tumors; 2.5 mg/kg daily i.p. for fourteen days,significantly reduced the growth of these tumors
same,tumor morphology (hematoxylin and eosin),"HepG-2 tumors; 2.5 mg/kg, day fourteen","unorganized, reduced tumor masses with massive interstitial hemorrhages and few blood vessels"
same,PECAM-1 positive endothelial cells in tumors,HepG-2 tumors; preliminary data,few PECAM-1 (an endothelial cell marker) positive endothelial cells
